Library screening results

Protein sequences, listed by entry. Tags and fused reporters are not part of them.
UniProt E9BF75, entry or part of it: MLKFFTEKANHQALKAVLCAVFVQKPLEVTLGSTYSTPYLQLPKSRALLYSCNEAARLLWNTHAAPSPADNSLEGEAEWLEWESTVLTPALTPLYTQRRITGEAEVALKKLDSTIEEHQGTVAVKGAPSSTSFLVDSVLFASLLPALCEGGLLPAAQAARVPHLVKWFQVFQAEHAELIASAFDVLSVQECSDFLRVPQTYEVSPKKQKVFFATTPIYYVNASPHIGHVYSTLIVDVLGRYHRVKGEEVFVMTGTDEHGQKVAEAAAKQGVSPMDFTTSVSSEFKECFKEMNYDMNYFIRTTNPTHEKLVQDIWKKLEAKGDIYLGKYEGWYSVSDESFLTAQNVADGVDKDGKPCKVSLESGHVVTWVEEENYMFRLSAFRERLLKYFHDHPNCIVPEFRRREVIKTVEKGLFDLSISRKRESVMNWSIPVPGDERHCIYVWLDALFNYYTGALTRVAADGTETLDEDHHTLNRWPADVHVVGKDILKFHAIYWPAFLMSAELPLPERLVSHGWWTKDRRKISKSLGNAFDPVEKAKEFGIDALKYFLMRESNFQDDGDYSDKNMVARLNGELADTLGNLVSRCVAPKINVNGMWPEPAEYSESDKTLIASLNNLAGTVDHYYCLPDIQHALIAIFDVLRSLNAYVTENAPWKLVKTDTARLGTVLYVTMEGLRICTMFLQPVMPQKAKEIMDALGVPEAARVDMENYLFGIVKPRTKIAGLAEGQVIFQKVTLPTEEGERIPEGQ

A: 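Assay on Mycobacterium tuberculosis, filed only as a heat shock assay from Cornell; the read-out is not stated. The concentration is filed as 10 mM, unlikely as a test dose, so the dose is not known. Direction is inferred from retests: higher values go with stronger inhibition. Size under these conditions: about 69,000 compounds, about 930 of them at 50% or above in at least one test.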
B: 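Primary screen of methionyl-tRNA synthetase; the read-out is not stated. Target: Methionyl-tRNA synthetase (putative), Leishmania donovani (UniProt E9BF75). The test concentration is not given. The values are filed as inhibition. About 68,000 compounds were tested under these conditions; 0.035% (about 24) showed 50% or more at least once.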
C: 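Whole-cell assay for inhibitors of Mycobacterium tuberculosis growth, labelled Cornell in the record; the read-out is not stated. The concentration is filed as 10 mM, unlikely as a test dose, so the dose is not known. The record gives no direction; compounds strong in two other growth screens of this library score well above the rest, so higher reads as stronger inhibition. Size under these conditions: about 53,000 compounds, about 900 of them at 50% or above in at least one test.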

All values are in %.
How 0% and 100% were set is not recorded. Most values in the screen are low, and negative values occur.
The compounds are a random part of those screened.
A dash means the value is not listed here; it may have been measured.

| structure | A | B | C |
|---|---|---|---|
| `Cc1cccnc1NC(=O)c1ccc(F)c(S(=O)(=O)N2CCC2)c1` | -3.699 | 10.34 | -16 |
| `N#Cc1cc(S(N)(=O)=O)ccc1N1CCN(c2ccccc2)CC1` | 15.31 | 19.33 | - |
| `CC(C)OCC(=O)N1CCC(c2ncncc2-c2ccnc(N)c2)C1` (stereo not drawn) | 1.232 | 15.22 | 5.588 |
| `COCC1CC2(CCN(C(=O)c3oc4ccccc4c3C)CC2)CO1` (stereo not drawn) | -1.522 | 6.849 | 19.68 |
| `Cc1ccsc1CNc1ccc(C(=O)N2CCNC(=O)C2)cn1` | -1.523 | 13.61 | -5.55 |
| `Cc1nc(C)n(CC2CN(c3ccc(C#N)cn3)CCO2)n1` (stereo not drawn) | -15.2 | 13.39 | 23.42 |
| `Cc1ccc(CN2CCC3(CCCN3S(C)(=O)=O)CC2)s1.O=C(O)C(F)(F)F` | 7.859 | - | -3.274 |
| `CC(=O)Nc1nc(C2CCCN(C(=O)CN(C)C)C2)cs1` (stereo not drawn) | -5.467 | 14.19 | -5.059 |
| `COc1ccc(OCCCNC(=O)NCc2csc(C)n2)cc1` | 10.6 | 9.206 | 27.68 |
| `COc1cccc(C(=O)NCc2ccccc2S(=O)(=O)N(C)C)c1` | 13.3 | 7.711 | 18 |
| `Cc1nc(CN2CCC(O)(c3ccccc3F)CC2)c2ccccn12` | - | 9.119 | - |
| `COc1ccc(C(C)Nc2ncc(C(N)=O)cc2Cl)cc1F` (stereo not drawn) | 16.24 | 12.1 | -9.023 |
| `[H][C@]12C[C@H](C(=O)NC)N(C)[C@@]1([H])CN(C(=O)c1ccc(C)nc1)C2` | 18.6 | - | -1.519 |
| `N#Cc1ccc(OC[C@]23COC[C@H]2CN(c2ncccn2)C3)nc1` | - | 6.301 | - |
| `CN(C)c1ncncc1NC(=O)Cc1c[nH]c2ccc(F)cc12` | -31.06 | 14.29 | - |
| `O=C(CCc1cc2n(n1)CCCNC2)NCCS(=O)(=O)N1CCCC1` | -26.02 | 8.517 | -51.2 |
| `CCc1nc(N2CCC3(CC2)[C@H](O)C[C@@H]3O)ncc1C` | 3.056 | 9.025 | -3.82 |
| `O=C(O)C(F)(F)F.O=C(O)C(F)(F)F.[H][C@@]12CN(Cc3ccc(OC)cc3)C[C@]1([H])C(=O)N(Cc1ccncc1)C2` | -2.368 | - | - |
| `COc1ccc(CNC(C)Cn2cccn2)c(OC)c1OC.Cl` (stereo not drawn) | -23.13 | - | -53.87 |
| `c1cnc(N2CCC3(CCN(Cc4ccncc4)CC3)CC2)nc1` | - | 11.11 | - |
| `CC(C)CN1CC(c2nc(C3CC3)n[nH]2)CC1=O` (stereo not drawn) | 1.494 | 1.117 | -1.821 |
| `O=C(O)C(F)(F)F.[H][C@@]12CCN(Cc3ccc4c(c3)OCO4)C[C@]1([H])O[C@@H](C(=O)NC1CC1)C2` | -43.89 | - | 6.463 |
| `Cc1ccc(CCNC(=O)NCCCC(N)=O)c(C)c1` | -3.449 | 11.42 | - |
| `COc1c(CNCc2ccccc2CO)c(C)nn1C` | -1.105 | 10.44 | - |
| `CC(=O)N1CCCN(C(=O)c2ccc(Cn3ccccc3=O)o2)CC1` | 31.51 | -6.032 | - |
| `Cc1cnc(N2CCc3ncnc(N4CCN(C)CC4)c3CC2)nc1` | - | 7.317 | - |
| `CN1CCOC(CNCc2cnc(C(C)(C)C)s2)C1` (stereo not drawn) | -2.094 | 22.74 | 18.35 |
| `CC1CN(CC(=O)NC(=O)NCc2cccs2)CCN1CC(F)(F)F` (stereo not drawn) | -18.97 | 9.492 | - |
| `Cc1cc(NC(=O)CN2CCc3c(nc(C(C)C)n3C)C2)on1` | -12.77 | 11.68 | - |
| `CN1CCn2c(-c3cccc(F)c3)cnc2C12CCN(CC1CC1)CC2.O=C(O)C(F)(F)F.O=C(O)C(F)(F)F.O=C(O)C(F)(F)F` | -13.35 | - | 24.07 |
| `O=C(c1ncncc1Cl)N1CCC2(CCCC2)CC1` | -4.838 | 6.906 | - |
| `Cc1cnn(CC(=O)N(CC2CN(C)CCO2)c2nccs2)c1` (stereo not drawn) | -4.461 | 9.561 | -0.9775 |
| `COCCNc1cc(-c2ccccc2S(N)(=O)=O)c2cc[nH]c2n1` | 15.18 | 18.12 | 21.18 |
| `COCC(C)(CCO)NC(=O)Nc1c(F)cccc1Br` (stereo not drawn) | 20.17 | 8.681 | -14.54 |
| `Cc1ccc(C(=O)N2C[C@H](NS(C)(=O)=O)[C@@H](C(C)C)C2)cc1F` | -20.38 | 15.65 | -0.5199 |
| `COc1cc(CN(C)C(=O)Nc2cc(C)on2)ccc1SC` | 13.46 | 13.33 | 35.04 |
| `CCOCC1CN(S(C)(=O)=O)Cc2nn(C)cc21` (stereo not drawn) | 3.661 | 5.602 | -11.52 |
| `N#CC1COCCN1S(=O)(=O)c1ccc2ccccc2c1` (stereo not drawn) | -11.01 | -1.099 | 6.881 |
| `CC(C)n1cnnc1CN(C)C(=O)C1CCCN(C2CCN(C)CC2)C1` (stereo not drawn) | -14.9 | -12.15 | 27.41 |
| `O=C(O)C(F)(F)F.O=C(O)C(F)(F)F.[H][C@]12CCC[C@@H](CN(C)C3CC3)[C@@]1([H])CN(Cc1cccnc1)C2` | 0.9154 | - | -48.91 |
| `CCc1nc(CN2CCN(C(=O)Cc3c(C)noc3C)CC2)cs1` | 26 | 14.11 | 8.943 |
| `CCS(=O)(=O)N1CCC2(CC(=O)N(c3cccc(C)c3)C2)C1` (stereo not drawn) | -0.501 | 12.97 | 32.87 |
| `Cc1noc(CCCC(=O)N(CC2CCOC2)C2CC2)n1` (stereo not drawn) | -9.702 | 7.67 | - |
| `Cc1nc(O)cc(CCNc2nc(N(C)C)nc(C)c2C)n1` | 23.13 | 1.773 | -13.62 |
| `Cc1ccc(CN2CCCn3c(nc(CN4CCCC4)cc3=O)C2)s1.O=C(O)C(F)(F)F.O=C(O)C(F)(F)F` | 12.52 | - | 11.05 |
| `CC1(C)CNC(=O)CN(C(=O)COc2ccccc2)C1` | -4.32 | 9.459 | -25.83 |
| `CCS(=O)(=O)c1ccc(N2CCC(NC(=O)c3cnn(C)c3)CC2)cc1` | -0.5555 | 13.66 | 28.24 |
| `CC(C)(C)c1n[nH]cc1CNCC1CCN(C2CC2)C1` (stereo not drawn) | - | 8.333 | - |
| `CCN(CC(=O)N(C)C)C(=O)C(C)(C)c1ccc2c(c1)OCCO2` | 13.12 | 11.62 | -10.31 |

Repeated from the top, 5 entries:

structure	A	B	C
Cc1cccnc1NC(=O)c1ccc(F)c(S(=O)(=O)N2CCC2)c1	-3.699	10.34	-16
N#Cc1cc(S(N)(=O)=O)ccc1N1CCN(c2ccccc2)CC1	15.31	19.33	-
CC(C)OCC(=O)N1CCC(c2ncncc2-c2ccnc(N)c2)C1 (stereo not drawn)	1.232	15.22	5.588
COCC1CC2(CCN(C(=O)c3oc4ccccc4c3C)CC2)CO1 (stereo not drawn)	-1.522	6.849	19.68
Cc1ccsc1CNc1ccc(C(=O)N2CCNC(=O)C2)cn1	-1.523	13.61	-5.55

Measurements from “University of Dundee, Small-Polar-MMV Screening Library” (2021), ChEMBL document CHEMBL3988442.